The other results are listed elsewhere or left out.
Key:
Assay in all cases: log2 fold change, soluble protein after heating vs DMSO (PISA); higher = thermal stabilisation; K562 cells, 10 uM, 30 min; active = over 0.2 and 3.5 SD of the protein, either way, in both replicates (recomputed)
[1] = compound: NC(=O)Nc1cc(-c2cccc(F)c2)sc1C(=O)N[C@H]1CCCNC1
Outline: (§1)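 K562 cells (2×10^6 cells/mL) were treated with 10 μM compound for 30 min, and aliquots were heated for 3 min over 48°C-58°C. Pooled aliquots were extracted in PBS with 0.5% NP-40 at 4°C, and the supernatant after 21,000xg for 90 min was measured by TMTpro 16plex LC-MS/MS with channel sums equalised. Reported thermal stability, relative to control samples and from duplicates, is a log2 fold change.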

Amino acid sequences for entries named in this document (tags omitted). A change or cut given only in a name is not applied to a line headed by its entry.
UniProt O43399: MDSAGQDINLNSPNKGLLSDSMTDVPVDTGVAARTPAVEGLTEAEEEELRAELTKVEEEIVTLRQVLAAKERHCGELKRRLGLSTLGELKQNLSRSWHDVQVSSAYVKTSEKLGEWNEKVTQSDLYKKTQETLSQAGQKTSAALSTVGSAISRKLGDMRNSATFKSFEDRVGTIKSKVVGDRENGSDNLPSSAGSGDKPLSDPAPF
UniProt O75157: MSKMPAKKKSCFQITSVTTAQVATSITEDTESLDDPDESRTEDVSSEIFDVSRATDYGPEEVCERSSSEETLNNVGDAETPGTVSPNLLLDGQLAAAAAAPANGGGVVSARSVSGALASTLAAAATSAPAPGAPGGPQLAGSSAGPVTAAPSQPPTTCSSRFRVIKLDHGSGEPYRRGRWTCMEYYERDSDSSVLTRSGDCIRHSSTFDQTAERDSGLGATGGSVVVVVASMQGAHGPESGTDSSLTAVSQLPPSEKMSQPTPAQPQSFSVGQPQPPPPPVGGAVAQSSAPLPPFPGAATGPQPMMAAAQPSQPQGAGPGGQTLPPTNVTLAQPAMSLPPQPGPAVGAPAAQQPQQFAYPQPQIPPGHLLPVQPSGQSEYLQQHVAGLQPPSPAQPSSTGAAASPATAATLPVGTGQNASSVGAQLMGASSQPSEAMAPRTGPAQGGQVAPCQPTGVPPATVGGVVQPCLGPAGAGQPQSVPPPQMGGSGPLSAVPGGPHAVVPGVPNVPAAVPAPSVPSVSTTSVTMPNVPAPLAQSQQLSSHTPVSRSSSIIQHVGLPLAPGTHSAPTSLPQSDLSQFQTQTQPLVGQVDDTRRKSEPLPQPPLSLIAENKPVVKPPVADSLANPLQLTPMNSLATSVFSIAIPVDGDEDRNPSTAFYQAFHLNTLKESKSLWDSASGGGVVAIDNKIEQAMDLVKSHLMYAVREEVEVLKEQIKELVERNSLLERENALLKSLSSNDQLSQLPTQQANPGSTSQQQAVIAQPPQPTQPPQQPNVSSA
UniProt Q12931: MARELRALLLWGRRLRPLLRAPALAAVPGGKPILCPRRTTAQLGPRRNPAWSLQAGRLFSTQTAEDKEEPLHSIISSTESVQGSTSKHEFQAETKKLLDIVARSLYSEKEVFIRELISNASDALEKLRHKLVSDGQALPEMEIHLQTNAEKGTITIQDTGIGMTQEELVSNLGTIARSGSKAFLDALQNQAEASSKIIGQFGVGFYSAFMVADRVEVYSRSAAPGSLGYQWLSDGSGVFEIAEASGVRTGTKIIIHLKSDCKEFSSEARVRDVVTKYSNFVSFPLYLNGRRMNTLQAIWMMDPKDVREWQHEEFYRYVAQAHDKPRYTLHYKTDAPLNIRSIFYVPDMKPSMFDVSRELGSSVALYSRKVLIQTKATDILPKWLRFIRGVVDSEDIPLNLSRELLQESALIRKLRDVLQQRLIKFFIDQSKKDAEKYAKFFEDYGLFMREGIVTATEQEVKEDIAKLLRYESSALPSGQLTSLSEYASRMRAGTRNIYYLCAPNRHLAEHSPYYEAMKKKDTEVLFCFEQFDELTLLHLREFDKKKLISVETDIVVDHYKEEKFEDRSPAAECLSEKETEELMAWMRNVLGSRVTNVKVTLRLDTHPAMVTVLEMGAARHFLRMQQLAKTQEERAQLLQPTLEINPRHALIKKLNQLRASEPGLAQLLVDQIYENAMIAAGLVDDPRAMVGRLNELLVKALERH
UniProt O94842: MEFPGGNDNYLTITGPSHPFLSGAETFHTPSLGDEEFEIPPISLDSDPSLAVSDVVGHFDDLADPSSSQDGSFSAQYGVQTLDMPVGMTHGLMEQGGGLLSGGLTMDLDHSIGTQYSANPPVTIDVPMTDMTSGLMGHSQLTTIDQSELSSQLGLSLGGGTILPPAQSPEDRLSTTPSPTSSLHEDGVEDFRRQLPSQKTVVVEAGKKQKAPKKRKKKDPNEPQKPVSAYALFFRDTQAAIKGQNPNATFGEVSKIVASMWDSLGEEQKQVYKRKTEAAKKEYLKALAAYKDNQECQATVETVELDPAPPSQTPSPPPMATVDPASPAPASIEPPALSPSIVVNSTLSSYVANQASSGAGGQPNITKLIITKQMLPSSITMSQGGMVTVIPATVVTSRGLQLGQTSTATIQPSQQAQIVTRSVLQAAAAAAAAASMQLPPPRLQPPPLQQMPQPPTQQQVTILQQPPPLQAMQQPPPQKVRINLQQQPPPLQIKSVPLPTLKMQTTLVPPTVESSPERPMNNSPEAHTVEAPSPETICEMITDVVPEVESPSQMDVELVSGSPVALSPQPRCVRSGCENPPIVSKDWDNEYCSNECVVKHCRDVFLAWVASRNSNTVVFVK
UniProt P11387: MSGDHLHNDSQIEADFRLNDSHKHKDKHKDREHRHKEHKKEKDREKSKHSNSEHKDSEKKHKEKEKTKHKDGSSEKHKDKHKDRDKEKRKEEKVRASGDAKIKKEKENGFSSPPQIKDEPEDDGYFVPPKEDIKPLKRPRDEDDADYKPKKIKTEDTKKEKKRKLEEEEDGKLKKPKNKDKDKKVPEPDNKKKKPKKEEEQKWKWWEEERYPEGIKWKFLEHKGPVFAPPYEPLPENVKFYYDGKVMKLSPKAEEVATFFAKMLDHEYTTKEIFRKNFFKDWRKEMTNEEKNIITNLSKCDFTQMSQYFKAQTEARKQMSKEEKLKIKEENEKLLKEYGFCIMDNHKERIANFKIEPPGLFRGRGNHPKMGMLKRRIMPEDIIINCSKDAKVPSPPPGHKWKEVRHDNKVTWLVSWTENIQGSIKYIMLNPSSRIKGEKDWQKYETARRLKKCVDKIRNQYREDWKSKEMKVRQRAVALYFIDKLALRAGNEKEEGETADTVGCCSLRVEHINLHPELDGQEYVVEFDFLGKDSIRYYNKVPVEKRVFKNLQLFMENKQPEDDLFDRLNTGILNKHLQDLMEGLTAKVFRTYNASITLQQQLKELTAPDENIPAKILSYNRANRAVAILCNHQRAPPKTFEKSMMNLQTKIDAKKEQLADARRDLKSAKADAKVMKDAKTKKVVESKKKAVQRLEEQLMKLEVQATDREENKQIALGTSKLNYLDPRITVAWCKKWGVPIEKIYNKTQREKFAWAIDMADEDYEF
UniProt Q8WVT3: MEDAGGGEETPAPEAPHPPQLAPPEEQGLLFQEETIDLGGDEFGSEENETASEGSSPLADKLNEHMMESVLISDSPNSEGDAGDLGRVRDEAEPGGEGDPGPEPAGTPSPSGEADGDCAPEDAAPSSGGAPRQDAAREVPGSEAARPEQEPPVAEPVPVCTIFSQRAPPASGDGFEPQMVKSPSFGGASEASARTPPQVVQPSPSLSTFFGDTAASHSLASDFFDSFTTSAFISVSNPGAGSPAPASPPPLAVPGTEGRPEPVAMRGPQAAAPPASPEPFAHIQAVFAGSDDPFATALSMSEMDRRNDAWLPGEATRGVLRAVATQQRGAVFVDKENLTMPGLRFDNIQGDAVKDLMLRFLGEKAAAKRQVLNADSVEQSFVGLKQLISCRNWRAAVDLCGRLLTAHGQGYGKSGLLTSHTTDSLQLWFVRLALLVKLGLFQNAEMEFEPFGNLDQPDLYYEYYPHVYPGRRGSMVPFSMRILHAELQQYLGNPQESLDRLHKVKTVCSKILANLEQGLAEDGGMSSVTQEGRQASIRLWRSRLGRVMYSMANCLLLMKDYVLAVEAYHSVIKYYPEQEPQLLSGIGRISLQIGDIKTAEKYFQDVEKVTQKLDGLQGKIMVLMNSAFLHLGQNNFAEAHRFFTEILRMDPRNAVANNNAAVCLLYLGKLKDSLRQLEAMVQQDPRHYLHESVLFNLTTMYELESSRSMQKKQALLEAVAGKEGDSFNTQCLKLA
UniProt Q96Q11: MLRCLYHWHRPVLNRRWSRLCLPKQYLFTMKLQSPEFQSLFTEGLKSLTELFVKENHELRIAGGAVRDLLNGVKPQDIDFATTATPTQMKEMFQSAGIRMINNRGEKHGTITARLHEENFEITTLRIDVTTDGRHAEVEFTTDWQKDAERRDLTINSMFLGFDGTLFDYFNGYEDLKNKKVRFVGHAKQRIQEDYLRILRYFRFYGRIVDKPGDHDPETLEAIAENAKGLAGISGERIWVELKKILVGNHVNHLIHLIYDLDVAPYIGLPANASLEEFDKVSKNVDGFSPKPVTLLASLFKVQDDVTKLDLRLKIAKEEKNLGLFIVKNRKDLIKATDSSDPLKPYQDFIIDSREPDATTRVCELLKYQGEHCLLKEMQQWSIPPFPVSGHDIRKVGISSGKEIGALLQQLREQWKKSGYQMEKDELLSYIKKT
UniProt Q9BQ61: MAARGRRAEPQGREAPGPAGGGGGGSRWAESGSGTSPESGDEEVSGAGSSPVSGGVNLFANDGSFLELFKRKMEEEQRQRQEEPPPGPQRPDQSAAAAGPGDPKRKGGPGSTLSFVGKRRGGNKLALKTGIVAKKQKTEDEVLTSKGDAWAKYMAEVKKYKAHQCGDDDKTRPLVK
UniProt Q96Q05, whole entry, looked up: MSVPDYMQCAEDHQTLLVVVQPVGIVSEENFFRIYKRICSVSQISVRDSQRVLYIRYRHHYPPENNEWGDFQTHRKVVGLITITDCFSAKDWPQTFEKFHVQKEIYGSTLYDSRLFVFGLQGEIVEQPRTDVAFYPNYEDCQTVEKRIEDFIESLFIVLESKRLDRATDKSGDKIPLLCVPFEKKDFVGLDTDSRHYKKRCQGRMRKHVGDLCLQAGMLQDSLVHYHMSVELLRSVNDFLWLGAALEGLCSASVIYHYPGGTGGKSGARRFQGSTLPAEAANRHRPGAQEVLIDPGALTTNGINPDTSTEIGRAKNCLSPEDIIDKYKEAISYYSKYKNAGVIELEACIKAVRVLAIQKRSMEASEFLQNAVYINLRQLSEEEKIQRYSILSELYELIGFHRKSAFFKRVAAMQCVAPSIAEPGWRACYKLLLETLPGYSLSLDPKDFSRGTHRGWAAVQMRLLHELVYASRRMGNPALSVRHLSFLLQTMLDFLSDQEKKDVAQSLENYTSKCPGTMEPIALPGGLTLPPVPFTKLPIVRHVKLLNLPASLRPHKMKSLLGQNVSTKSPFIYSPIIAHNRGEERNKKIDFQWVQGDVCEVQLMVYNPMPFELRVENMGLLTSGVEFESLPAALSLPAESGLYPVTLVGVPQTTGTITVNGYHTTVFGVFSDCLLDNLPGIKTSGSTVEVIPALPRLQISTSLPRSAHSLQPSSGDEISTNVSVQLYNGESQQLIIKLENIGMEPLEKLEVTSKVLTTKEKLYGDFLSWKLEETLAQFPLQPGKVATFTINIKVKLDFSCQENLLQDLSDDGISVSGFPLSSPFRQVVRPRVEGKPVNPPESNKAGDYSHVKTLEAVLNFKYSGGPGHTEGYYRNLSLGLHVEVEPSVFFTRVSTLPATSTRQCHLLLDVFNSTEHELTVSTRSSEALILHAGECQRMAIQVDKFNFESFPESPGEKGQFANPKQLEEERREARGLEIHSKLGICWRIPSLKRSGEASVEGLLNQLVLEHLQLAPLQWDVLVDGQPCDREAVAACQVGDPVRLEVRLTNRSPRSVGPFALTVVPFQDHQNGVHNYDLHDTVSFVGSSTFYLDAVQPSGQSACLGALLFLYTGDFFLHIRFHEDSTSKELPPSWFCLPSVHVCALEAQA
UniProt Q8NFQ8: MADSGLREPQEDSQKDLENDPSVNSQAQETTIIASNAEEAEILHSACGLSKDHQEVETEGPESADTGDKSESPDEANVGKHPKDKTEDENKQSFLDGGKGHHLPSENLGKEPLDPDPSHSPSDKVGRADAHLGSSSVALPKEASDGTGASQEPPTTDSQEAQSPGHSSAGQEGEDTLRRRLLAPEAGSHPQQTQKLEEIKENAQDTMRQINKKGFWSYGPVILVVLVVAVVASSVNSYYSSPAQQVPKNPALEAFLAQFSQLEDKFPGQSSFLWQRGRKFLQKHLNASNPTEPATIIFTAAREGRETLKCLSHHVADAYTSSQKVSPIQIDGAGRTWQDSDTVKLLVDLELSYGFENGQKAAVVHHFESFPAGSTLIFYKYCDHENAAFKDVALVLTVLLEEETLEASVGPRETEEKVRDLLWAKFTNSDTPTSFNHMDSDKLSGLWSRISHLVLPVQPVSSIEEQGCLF
UniProt Q16890: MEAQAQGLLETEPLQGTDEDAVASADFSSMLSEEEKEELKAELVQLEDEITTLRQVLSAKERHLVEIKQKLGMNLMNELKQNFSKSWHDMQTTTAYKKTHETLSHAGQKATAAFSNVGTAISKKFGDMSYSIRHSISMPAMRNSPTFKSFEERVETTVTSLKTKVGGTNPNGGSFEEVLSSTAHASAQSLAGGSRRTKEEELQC
UniProt Q8WWH5: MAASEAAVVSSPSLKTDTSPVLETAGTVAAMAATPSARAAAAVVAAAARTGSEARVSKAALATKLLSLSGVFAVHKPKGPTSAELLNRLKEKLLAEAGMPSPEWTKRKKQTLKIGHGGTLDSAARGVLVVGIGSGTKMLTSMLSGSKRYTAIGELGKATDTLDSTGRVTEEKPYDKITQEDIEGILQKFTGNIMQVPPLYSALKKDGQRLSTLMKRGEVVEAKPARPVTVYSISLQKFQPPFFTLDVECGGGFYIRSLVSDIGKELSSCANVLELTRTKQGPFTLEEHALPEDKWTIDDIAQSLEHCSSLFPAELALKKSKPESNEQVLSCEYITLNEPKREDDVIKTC

[2] = compound: NC(=O)c1cnc(N[C@@H]2CCCC[C@@H]2N)nc1Nc1cccc(-n2nccn2)c1
Outline: as §1

[3] = compound: NC1(c2ccc(-c3nc4ccn5c(=O)[nH]nc5c4cc3-c3ccccc3)cc2)CCC1
Outline: as §1

[4] = compound: NCC(=O)Nc1ccc(-n2nc(C(F)(F)F)cc2-c2ccc3c(ccc4ccccc43)c2)cc1
Outline: as §1

entinostat = compound: Nc1ccccc1NC(=O)c1ccc(CNC(=O)OCc2cccnc2)cc1 [entinostat]
Outline: as §1

vorinostat = compound: O=C(CCCCCCC(=O)Nc1ccccc1)NO [vorinostat]
Outline: as §1

citarinostat = compound: O=C(CCCCCCNC(=O)c1cnc(N(c2ccccc2)c2ccccc2Cl)nc1)NO [citarinostat]
Outline: as §1

silmitasertib = compound: O=C(O)c1ccc2c(c1)nc(Nc1cccc(Cl)c1)c1ccncc12 [silmitasertib]
Outline: as §1

[5] = compound: O=C1NC(=O)C(c2cnc3ccccn23)=C1c1cn2c3c(cc(F)cc13)CN(C(=O)N1CCCCC1)CC2
Outline: as §1

[6] = compound: c1cc(OCCN2CCCCC2)cc(-c2n[nH]c3ccc(-c4nnc[nH]4)cc23)c1
Outline: as §1

entospletinib = compound: c1cn2cc(-c3ccc4cn[nH]c4c3)nc(Nc3ccc(N4CCOCC4)cc3)c2n1 [entospletinib]
Outline: as §1

Measured: log2 fold change

TRMT1 (UniProt Q9NXH9)
inactive: [1] 0.01 | [2] 0.027 | [3] -0.007 | [4] 0.002 | entinostat -0.025 | vorinostat -0.032 | citarinostat -0.018 | silmitasertib -0.02 | [5] -0.038 | [6] 0.007 | entospletinib -0.036

TPD52L2 isoform 7 (UniProt O43399)
inactive: [1] -0.007 | [2] -0.028 | [3] 0.014 | [4] -0.015 | entinostat 0.015 | vorinostat -0.019 | citarinostat 0.034 | silmitasertib -0.03 | [5] -0.068 | [6] -0.01 | entospletinib -0.005

TSC22D2 (UniProt O75157)
inactive: [1] -0.095 | [2] -0.038 | [3] -0.021 | [4] -0.073 | entinostat -0.083 | vorinostat -0.148 | citarinostat -0.02 | silmitasertib 0.026 | [5] -0.074 | [6] -0.015 | entospletinib 0.079

TP53RK (UniProt Q96S44)
inactive: [1] 0.011 | [2] -0.021 | [3] -0.006 | [4] -0.009 | entinostat -0.024 | vorinostat -0.018 | citarinostat 0.015 | silmitasertib -0.026 | [5] -0.026 | [6] -0.046 | entospletinib 0.011

TRAP1 (UniProt Q12931)
inactive: [1] 0.011 | [2] -0.001 | [3] -0.024 | [4] 0.047 | entinostat 0.01 | vorinostat -0.01 | citarinostat 0.016 | silmitasertib 0.008 | [5] -0.027 | [6] 0.013 | entospletinib 0.004

TOX4 (UniProt O94842)
inactive: [1] 0.036 | [2] 0.094 | [3] 0.185 | [4] 0.094 | entinostat -0.033 | vorinostat 0 | citarinostat -0.139 | silmitasertib 0.085 | [5] 0.287 | [6] 0.058 | entospletinib 0.06

TOP1 (UniProt P11387)
inactive: [1] 0.158 | [2] -0.029 | [3] 0.154 | [4] 0.185 | entinostat 0.049 | vorinostat 0 | citarinostat -0.054 | silmitasertib 0.057 | [5] 0.085 | [6] -0.087 | entospletinib -0.115

TRMT13 (UniProt Q9NUP7)
inactive: [1] -0.006 | [2] -0.041 | [3] -0.114 | [4] -0.067 | entinostat 0.008 | vorinostat -0.033 | citarinostat 0.038 | silmitasertib -0.011 | [5] -0.141 | [6] -0.125 | entospletinib -0.009

TOR1B (UniProt O14657)
inactive: [1] -0.015 | [2] -0.054 | [3] -0.067 | [4] -0.035 | entinostat 0.016 | vorinostat -0.046 | citarinostat 0.02 | silmitasertib 0.048 | [5] 0.014 | [6] -0.149 | entospletinib -0.03

TSC22D1 (UniProt Q15714)
inactive: [1] 0.017 | [2] -0.046 | [3] -0.075 | [4] -0.085 | entinostat 0.002 | vorinostat 0.013 | citarinostat 0.074 | silmitasertib 0.006 | [5] 0.01 | [6] -0.036 | entospletinib -0.019

TRAPPC12 (UniProt Q8WVT3)
inactive: [1] -0.046 | [2] -0.01 | [3] -0.183 | [4] -0.015 | entinostat 0.013 | vorinostat 0.014 | citarinostat 0.042 | silmitasertib 0.026 | [5] -0.008 | [6] -0.146 | entospletinib 0.058

TRNT1 (UniProt Q96Q11)
inactive: [1] -0.037 | [2] -0.018 | [3] -0.101 | [4] -0.064 | entinostat -0.022 | vorinostat 0.051 | citarinostat 0.062 | silmitasertib -0.034 | [5] -0.127 | [6] -0.017 | entospletinib -0.024

TRIR (UniProt Q9BQ61)
inactive: [1] -0.017 | [2] -0.007 | [3] 0.05 | [4] 0.027 | entinostat -0.076 | vorinostat -0.103 | citarinostat -0.043 | silmitasertib 0.029 | [5] -0.085 | [6] 0.028 | entospletinib 0.049

TRAF6 (UniProt Q9Y4K3)
inactive: [1] 0.002 | [2] 0.054 | [3] 0.05 | [4] -0.119 | entinostat 0.062 | vorinostat 0.082 | citarinostat -0.021 | silmitasertib -0.004 | [5] -0.023 | [6] 0.064 | entospletinib 0.055

TRAPPC9 isoform 2 (UniProt Q96Q05)
inactive: [1] -0.015 | [2] 0.013 | [3] -0.068 | [4] -0.055 | entinostat 0.006 | vorinostat 0.102 | citarinostat 0.103 | silmitasertib -0.004 | [5] 0.066 | [6] -0.172 | entospletinib -0.062

Pulled one by one from above (two):
TRAPPC9 isoform 2 (UniProt Q96Q05)
inactive: [1] -0.015 | [2] 0.013 | [3] -0.068 | [4] -0.055 | entinostat 0.006 | vorinostat 0.102 | citarinostat 0.103 | silmitasertib -0.004 | [5] 0.066 | [6] -0.172 | entospletinib -0.062

TRAPPC12 (UniProt Q8WVT3)
inactive: [1] -0.046 | [2] -0.01 | [3] -0.183 | [4] -0.015 | entinostat 0.013 | vorinostat 0.014 | citarinostat 0.042 | silmitasertib 0.026 | [5] -0.008 | [6] -0.146 | entospletinib 0.058

Following part:

TOR3A (UniProt Q9H497)
inactive: [1] -0.015 | [2] 0.014 | [3] -0.076 | [4] 0.043 | entinostat 0.005 | vorinostat 0.023 | citarinostat 0.022 | silmitasertib 0.029 | [5] -0.079 | [6] -0.108 | entospletinib 0.001

TOR1AIP2 (UniProt Q8NFQ8)
inactive: [1] -0.021 | [2] -0.023 | [3] -0.015 | [4] -0.009 | entinostat -0.006 | vorinostat -0.02 | citarinostat -0.001 | silmitasertib 0.049 | [5] 0.004 | [6] -0.085 | entospletinib -0.006

TPST2 (UniProt O60704)
inactive: [1] 0.024 | [2] -0.009 | [3] 0.218 | [4] -0.011 | entinostat -0.023 | vorinostat -0.048 | citarinostat 0.084 | silmitasertib 0.002 | [5] -0.013 | [6] -0.024 | entospletinib -0.094

TNIK isoform 6 (UniProt Q9UKE5)
inactive: [1] 0.065 | [2] -0.074 | [3] 0.005 | [4] 0.012 | entinostat 0.045 | vorinostat 0.034 | citarinostat -0.015 | silmitasertib 0.016 | [5] 0.016 | [6] -0.069 | entospletinib -0.013

TPI1 (UniProt P60174)
inactive: [1] -0.018 | [2] -0.013 | [3] 0.022 | [4] -0.005 | entinostat -0.022 | vorinostat -0.041 | citarinostat 0.001 | silmitasertib -0.025 | [5] -0.046 | [6] 0.017 | entospletinib 0.014

TPD52L1 (UniProt Q16890)
inactive: [1] -0.017 | [2] -0.043 | [3] 0.016 | [4] 0.059 | entinostat -0.005 | vorinostat -0.027 | citarinostat 0.073 | silmitasertib -0.031 | [5] -0.001 | [6] -0.05 | entospletinib -0.019

TRMT1L (UniProt Q7Z2T5)
inactive: [1] 0.072 | [2] 0.097 | [3] 0.257 | [4] 0.082 | entinostat -0.084 | vorinostat -0.056 | citarinostat -0.056 | silmitasertib 0.209 | [5] 0.229 | [6] -0.191 | entospletinib 0.098

TRUB1 (UniProt Q8WWH5)
inactive: [1] 0.039 | [2] -0.018 | [3] -0.105 | [4] -0.012 | entinostat 0.015 | vorinostat 0.098 | citarinostat 0.038 | silmitasertib 0.015 | [5] -0.037 | [6] -0.057 | entospletinib -0.016

TRMT61B (UniProt Q9BVS5)
inactive: [1] -0.01 | [2] -0.051 | [3] 0.113 | [4] 0.081 | entinostat -0.059 | vorinostat 0.028 | citarinostat -0.014 | silmitasertib 0.054 | [5] 0.193 | [6] -0.106 | entospletinib 0.028

TOMM70 (UniProt O94826)
inactive: [1] -0.018 | [2] -0.056 | [3] -0.092 | [4] -0.033 | entinostat 0.042 | vorinostat 0 | citarinostat 0.043 | silmitasertib -0.003 | [5] -0.017 | [6] -0.023 | entospletinib -0.033

TRIM25 (UniProt Q14258)
inactive: [1] -0.001 | [2] 0.027 | [3] 0.165 | [4] 0.056 | entinostat 0.046 | vorinostat 0.01 | citarinostat -0.001 | silmitasertib 0.192 | [5] 0.178 | [6] -0.148 | entospletinib 0.101

TRAF2 (UniProt Q12933)
inactive: [1] 0 | [2] 0.008 | [3] -0.025 | [4] 0.023 | entinostat 0.019 | vorinostat -0.032 | citarinostat 0.022 | silmitasertib -0.006 | [5] -0.008 | [6] 0.038 | entospletinib 0.013

From the supplement of paper PMC10849652
